PubChem BioAssay AID1671195 – Yale University – 2021
Shown is a random part of about 22,000 reagents tested. Over the whole deposit, about 1,510 (6.9%) got an active call. 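Active includes knockdowns raising or lowering LDL uptake; positive z-scores mean more uptake, negative mean less.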

- Assay: 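Genes whose knockdown alters LDL uptake in liver cancer cells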 (primary screen)
- System: human Huh7 hepatoma cells
- Reagent: siRNA pool against human genes, 18 nM
- Duration: about 2 to 2.5 days of knockdown, then 8 h LDL uptake
- Challenge: DiI-labelled LDL at 30 µg/ml for 8 h, in lipoprotein-deficient serum medium
- Measured: 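Per-cell DiI-LDL intensity by automated imaging; well means scaled to the plate median and given as a robust z-score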
- Reading the numbers: robust z-score: higher = more LDL uptake after knockdown
- Rule for the call: 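Active when two or more replicates show a robust z-score above 2 or below -2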

gene	robust z-score, replicate 1	robust z-score, replicate 2	robust z-score, replicate 3	activity call
FLVCR2 (FLVCR choline and putative heme transporter 2)	-0.193	-0.0501	0.264	inactive
NUP42 (nucleoporin 42)	1.28	0.1	-0.131	inactive
CFLAR (CASP8 and FADD like apoptosis regulator)	-1.12	-0.593	-0.688	inactive
SLC26A9	-0.726	-0.758	-0.994	inactive
PATL2 (PAT1 homolog 2)	-0.0845	0.43	-0.429	inactive
FAM241A (family with sequence similarity 241 member A)	1.11	0.772	1.08	inactive
LOC401054 (retired record)	0.723	0.532	0.216	inactive
INIP (INTS3 and NABP interacting protein)	1.12	1.18	0.879	inactive
OAZ1 (ornithine decarboxylase antizyme 1)	0.396	-0.266	0.653	inactive
ZNF518B (zinc finger protein 518B)	0.861	0.853	0.508	inactive
TADA3 (transcriptional adaptor 3)	0.251	0.171	-0.0784	inactive
LOC388123 (retired record)	1.77	2.52	2.07	active
PDK1 (pyruvate dehydrogenase kinase 1)	-0.559	-0.812	-0.0511	inactive
ANKRD45 (ankyrin repeat domain 45)	-0.605	-0.569	-0.67	inactive
IL11 (interleukin 11)	0.154	-0.173	-0.229	inactive
PEX13 (peroxisomal biogenesis factor 13)	-0.712	-0.276	-2.16	inactive
TRMT10A (tRNA methyltransferase 10A)	1.76	1.55	1.06	inactive

Just “robust z-score, replicate 1”, for 3 of the entries above:
TADA3 (transcriptional adaptor 3)	0.251
LOC388123 (retired record)	1.77
PDK1 (pyruvate dehydrogenase kinase 1)	-0.559

Next reagents:
gene	robust z-score, replicate 1	robust z-score, replicate 2	robust z-score, replicate 3	activity call
IFFO1 (intermediate filament family orphan 1)	-0.869	-0.0761	0.922	inactive
TMEM126B (transmembrane protein 126B)	0.587	1.63	-0.674	inactive
CSTPP1	-0.0062	-0.412	-0.313	inactive
IRX6 (iroquois homeobox 6)	0.593	0.655	0.466	inactive
ABCC10 (ATP binding cassette subfamily C member 10)	-0.00494	0.422	-0.805	inactive
SEZ6 (seizure related 6 homolog)	-0.725	-0.599	-1.26	inactive
PHKG1 (phosphorylase kinase catalytic subunit gamma 1)	0.423	-0.572	-0.356	inactive
LOC343839 (retired record)	0.295	0.781	0.687	inactive
CFAP65 (cilia and flagella associated protein 65)	0.604	0.684	0.797	inactive
DDX31 (DEAD-box helicase 31)	-0.762	-0.0208	0.0119	inactive
LOC401859 (retired record)	-0.363	-0.211	-0.118	inactive
